Assay results as given in US9744174B2 (DemeRx, Inc., priority 2013, dated 2017).
The name of at least one read-out is uncertain.

Experiment: Ascending single-dose pharmacokinetics of noribogaine and noribogaine glucuronide (plasma, urine; LCMSMS)
Settings: noribogaine, mean (SD)

Compound: CC[C@H]1C[C@H]2C[C@H]3c4[nH]c5ccc(O)cc5c4CCN(C2)[C@@H]13 [Noribogaine]
- Vd/F (single oral 3 mg): 2485.1 (801.5) L
- Vd/F (single oral 10 mg): 3085.8 (1197.0) L
- Vd/F (single oral 30 mg): 1850.8 (707.9) L
- Vd/F (single oral 60 mg): 1416.8 (670.1) L
